These results are taken from paper PMC6307790.

Chains of the proteins cited; added tags and fusions are not shown.
UniProt Q9Y5Y6: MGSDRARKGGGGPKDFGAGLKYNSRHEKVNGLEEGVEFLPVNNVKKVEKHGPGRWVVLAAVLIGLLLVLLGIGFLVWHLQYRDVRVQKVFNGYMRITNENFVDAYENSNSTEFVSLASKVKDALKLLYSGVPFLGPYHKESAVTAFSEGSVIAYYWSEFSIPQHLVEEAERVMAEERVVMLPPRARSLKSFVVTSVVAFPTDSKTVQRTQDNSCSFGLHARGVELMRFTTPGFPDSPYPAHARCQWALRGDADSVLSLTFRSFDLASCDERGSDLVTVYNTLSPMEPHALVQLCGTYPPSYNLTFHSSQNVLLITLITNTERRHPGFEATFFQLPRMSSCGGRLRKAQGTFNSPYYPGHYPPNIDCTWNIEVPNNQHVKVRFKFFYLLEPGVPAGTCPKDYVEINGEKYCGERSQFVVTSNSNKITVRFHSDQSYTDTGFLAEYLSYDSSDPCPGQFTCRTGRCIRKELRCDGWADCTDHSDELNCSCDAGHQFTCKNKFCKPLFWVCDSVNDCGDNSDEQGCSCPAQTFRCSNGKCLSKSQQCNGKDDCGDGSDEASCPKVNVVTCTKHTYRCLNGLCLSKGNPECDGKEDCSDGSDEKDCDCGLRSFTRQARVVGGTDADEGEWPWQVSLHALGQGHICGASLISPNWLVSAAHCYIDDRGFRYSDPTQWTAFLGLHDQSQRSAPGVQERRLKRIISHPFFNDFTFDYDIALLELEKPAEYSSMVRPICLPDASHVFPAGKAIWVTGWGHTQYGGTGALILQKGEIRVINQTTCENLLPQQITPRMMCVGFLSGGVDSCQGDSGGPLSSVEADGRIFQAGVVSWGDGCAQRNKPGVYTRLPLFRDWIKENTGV

No constants are given. Whether binding was seen depends on the method and setting. For some of these results: In cells and extracts the contact can be indirect. Some binding calls cover weakened binding; strength is not graded here.

The target in assay [1] is activated matriptase (human (endogenous in A431, MCF-7 and SW620)) (UniProt Q9Y5Y6). Description: Western blot of non-reduced, non-boiled samples on SDS-PAGE (~120 kD complex band); conditioned medium of A431 and MCF-7 cells treated with 1 uM 3-Cl-AHPC for 12 hours. On the technique in general: Immunoblotting shows a protein as a band on a membrane.
Assay [2] has the same target. Kind of assay: Western blot of non-reduced, non-boiled samples on SDS-PAGE (~120 kD complex band); cell lysates of A431, MCF-7 and SW620 cells, untreated or treated with 3-Cl-AHPC (times and doses varied), EGF, matriptase siRNA or HAI-1 plasmid; 8% SDS-PAGE; complex band detected with M24, M69 and M19 antibodies.
The target is the same in assay [3]. Description: co-IP; A431 cells serum-starved, treated with 3-Cl-AHPC (1 uM) for 12 hours; lysis in 1% Triton X-100 in PBS; M69 or M19 immobilised on Protein G Agarose, overnight in a cold room; elution with 0.1 M glycine pH 2.4; immunoblot without beta-mercaptoethanol.

B1: Hepatocyte growth factor activator inhibitor-1 (HAI-1) (protein, UniProt O43278 36-529)
chain: GPPPAPPGLPAGADCLNSFTAGVPGFVLDTNASVSNGATFLESPTVRRGWDCVRACCTTQNCNLALVELQPDRGEDAIAACFLINCLYEQNFVCKFAPREGFINYLTREVYRSYRQLRTQGFGGSGIPKAWAGIDLKVQPQEPLVLKDVENTDWRLLRGDTDVRVERKDPNQVELWGLKEGTYLFQLTVTSSDHPEDTANVTVTVLSTKQTEDYCLASNKVGRCRGSFPRWYYDPTEQICKSFVYGGCLGNKNNYLREEECILACRGVQGGPLRGSSGAQATFPQGPSMERRHPVCSGTCQPTQFRCSNGCCIDSFLECDDTPNCPDASDEAACEKYTSGFDELQRIHFPSDKGHCVDLPDTGLCKESIPRWYYNPFSEHCARFTYGGCYGNKNNFEEEQQCLESCRGISKKDVFGLRREIPIPSTGSVEMAVAVFLVICIVVVVAILGYCFFKNQRKDFHGHHHHPPPTPASSTVSTTEDTEHLVYNHTTRPL
As to B1, the binding result in assay [1], in assay [2] and in assay [3] was “binds” throughout.

B2: ectopically overexpressed HAI-1 (protein, UniProt O43278 36-529)
chain: B1 chain
In the case of B2, the binding result in assay [2] is recorded as “binds”.
